# Measured values as given in ChEMBL document CHEMBL4296182, “CO-ADD screening of NIH NCI Diversity Set V”.
# This is one part of the list. Entries with a potency or affinity are not part of this list.
# Test system: Pseudomonas aeruginosa
# Conditions: Concentration 20 uM; ASSAY_TEST Inhibition of Bacterial Growth; detection method Absorption (OD600); MEDIA CAMHB; plate type 384well; NBS; CORNING #3640; time 18 hr
row,Compound,Inhibition
1,Cn1c(=O)c2c(nc(Cc3ccc(N)cc3)n2C)n(C)c1=O,10.27%
2,O=c1nc(Nc2cccc(Cl)c2)oc2cc(Cl)oc(=O)c12,11.19%
3,CC1CN(CCN2CC(C)N(C=O)CC2C)C(C)CN1C=O (stereo not given),-7.9%
4,NS(=O)(=O)c1ccc(/N=N/c2c(O)c(C(=O)O)cc3ccccc23)cc1,6.38%
5,O=C(O)c1ccccc1-c1ccccc1C(=O)Nc1ccc2oc(=O)c3ccccc3c2c1,-13.38%
6,CCCN=C(S)Nc1ccccc1,-18.98%
7,CCOc1ccc(S(=O)(=O)c2ccc(C)cc2)c2c1no[n+]2[O-],32.04%
8,c1ccc2c(c1)cnc1ccccc12 [PHENANTHRIDINE],-3.52%
9,Cc1cccc(C(O)C(O)c2cccc(C)n2)n1 (stereo not given),11.58%
10,O=S(=O)(O)c1ccc(/N=N/c2ccccc2)cc1,2.86%
11,CCCNC(=O)c1ccccc1C(=O)NC1(C(=O)NCCC)CCCC1,17.28%
12,O=C(/C=C/c1ccc(Cl)s1)c1ccc(Cl)s1,3.32%
13,CCc1noc2cc(-c3ccccc3)n(C)c(=O)c12,-4.85%
14,N=C(N)NC(=S)Nc1ccc(Cl)cc1,1.42%
15,CCN(CC)CCN1c2ccccc2Sc2ccc3ccccc3c21,29.3%
16,Cc1cccc(N2CCN(CC(O)COc3ccc(Cl)cc3)CC2)c1 (stereo not given),20.92%
17,c1ccc(-c2nnc3nc(N4CCCCC4)nc(N4CCCCC4)n23)cc1,20.3%
18,CCCCOC(=O)c1cccnc1,17.52%
19,COC(=O)[C@H]1[C@H]2C[C@@H]3c4[nH]c5cc(OC)ccc5c4CCN3C[C@H]2C[C@@H](OC(=O)CC(C)=O)[C@@H]1OC,18.08%
20,CCOC(=O)N1CCc2cc(OC)c(OC)c3c2c1cc1cc(OC)c(OC)cc13,22.81%
21,C=CCSC(CC)(CC)C(N)=O,-6.33%
22,O=C1CSC(=S)N1/N=C/c1c[nH]c2ccc(Br)cc12,7.67%
23,CCCCCOc1ccc(N2C(=O)C(C)CNC2=S)cc1 (stereo not given),22.16%
24,Cc1cc2nc3ccc(N(C)C)cc3[s+]c2cc1N.[Cl-] [TOLONIUM CHLORIDE],11.43%

# Arranged by number of heavy atoms (low to high): part of the list above
row,Compound,Inhibition
10,O=S(=O)(O)c1ccc(/N=N/c2ccccc2)cc1,2.86%
22,O=C1CSC(=S)N1/N=C/c1c[nH]c2ccc(Br)cc12,7.67%
2,O=c1nc(Nc2cccc(Cl)c2)oc2cc(Cl)oc(=O)c12,11.19%

# (more compounds)

row,Compound,Inhibition
1,CCSc1nc(O)cc(O)n1,20.7%
2,NC(=O)C1=C(N)c2ccccc2C1c1ccccc1 (stereo not given),-32.43%
3,Nc1nc(SCc2ccccn2)c2ncn(C3OC(CO)C(O)C3O)c2n1 (stereo not given),30.09%
4,O=C(O)c1cc(Cl)nnc1O,20.17%
5,CCOC(=O)Cn1nc2oc(=O)c(CCN3CCN(c4ccccc4OC)CC3)c(C)c2c1C,19.88%
6,NS(=O)(=O)c1ccc(Nc2ccccc2)c([N+](=O)[O-])c1,-9.27%
7,Cc1nc(O)c(Cc2ccccc2O)c(-c2ccccc2)n1,12.19%
8,Oc1ccc(/N=N/c2nccs2)c(O)c1,-6.73%
9,Sc1ncc2cnccn12,17.31%
10,COC(=O)C1(C(=O)OC)C2C(=O)C3C(C21)C3(C(=O)OC(C)(C)C)C(=O)OC(C)(C)C (stereo not given),11.1%
11,O=C1/C(=N\c2cccc(Cl)c2)CC(c2ccc(Cl)cc2)N1c1cccc(Cl)c1 (stereo not given),20%
12,CCN(CC)CCNc1c(C)nc(C#N)c(N)[n+]1[O-],11.42%
13,N#CNC(=N)c1ccccc1,-11.62%
14,OCC(O)C1OCOC(C(O)CO)C1O (stereo not given),5.9%
15,COc1ccc2c(c1)CCCN2C(=N)Nc1ccc(Cl)cc1,-10.18%
16,Nc1ccc(/N=N/c2ccccc2)c2ccccc12,17.01%
17,COc1cc2c(c(OC)c1O)C(=O)CO2,-6.35%
18,O=C(Nc1nc2ccccc2s1)Nc1ccc([N+](=O)[O-])cc1Cl,-4.27%
19,Cc1ccc(C#CC(C)(O)C(C)(C)C)cn1 (stereo not given),6.13%
20,CCOC(=O)Cc1cc(=O)[nH]n(-c2ccccc2)c1=O,7.36%
21,COc1cccc(OCC(O)CN2CCN(c3ccccc3)CC2)c1 (stereo not given),9.38%
22,Cc1cc(NC(=O)NC(=O)c2ccccc2NC(=O)C(C)N)ccc1Oc1ncc(Br)cn1.Cl (stereo not given),16.64%
23,Cc1ccc([N+](=O)[O-])cc1NC(=O)Nc1ccc(S(N)(=O)=O)cc1,10.86%
24,Cc1n[nH]c2c([N+](=O)[O-])c(=O)[nH]c(=O)n12,13.09%

row,Compound,Inhibition
1,Cc1ccc(-c2nc(-c3nccc4ccccc34)oc2-c2ccccc2)cc1,20.54%
2,O=[N+]([O-])c1ccc(/C=C\c2ccncc2)cc1,-10.78%
3,CCOC(=O)Cc1cnc(S)nc1O,11.95%
4,c1ccc2[nH]c(-c3ccncc3)nc2c1,18.79%
5,O=C(c1ccc(Cl)nc1)c1cccs1,-5.25%
6,O=C(O)c1cnn2c(S)ncnc12,8.68%
7,O=C(Nc1cccnc1)c1cccc([N+](=O)[O-])c1,8.42%
8,O=C(O)/C=C\C(=O)Nc1ccc(-c2ccccc2)cc1,-8.8%
9,N#CCc1cnc2ccccc2n1,5.42%
10,COc1ccc(/N=C\c2c(O)ccc3c2oc2cc(Cl)c(O)c(Cl)c23)cc1,-16.44%
11,Clc1ccc(-c2c(C3=NCCCN3)nnn2-c2ccc(Cl)cc2)cc1,21.75%
12,O=C(NC1CCCCC1)c1cc2ccccc2cc1O,18.91%
13,O=C(Oc1ccccc1)c1cccc2cccc(C(=O)Oc3ccccc3)c12,16.62%
14,CN(C)c1ccc(/N=N\c2cccc3ccoc23)cc1,-10.86%
15,CSc1cccc(NC(=O)Nc2nc3c(C)cccc3s2)c1,26.87%
16,CCOC(=O)CSc1nc2nc(Cl)c(Cl)[nH]c-2n1,15.29%
17,O=c1oc(-c2ccccc2)c(-c2ccccc2)c2ccccc12,7.75%
18,c1ccc(-c2ccc3c(c2)NCCN3)cc1,4.99%
19,CN(C)CCCn1c2c3ccccc3ccc2c2oc(=O)c3ccccc3c21.Cl,17.25%
20,Cc1cc(O)c2c(C)ccc(C)c2n1,10.71%
21,COc1ccc(CN2CCOC2=O)cc1OC,18.68%
22,Cc1ccc(C(C)C)cc1NC(=O)Nc1ccc([N+](=O)[O-])cc1,4.36%
